Measurements from PMC6195382.
Results are given in words; binding and its absence hold for the method and conditions named. Some binding calls cover weakened binding; strength is not graded here. For part of these data: Where a sequence is shown, tags or fusion partners need not be part of it.

Assays:
[1] = biological target: T1, mCEACAM1-His (mouse) (UniProt P31809); experiment: ELISA; protein ELISA with Fab of CC1 (data not shown); both purified
T1 sequence: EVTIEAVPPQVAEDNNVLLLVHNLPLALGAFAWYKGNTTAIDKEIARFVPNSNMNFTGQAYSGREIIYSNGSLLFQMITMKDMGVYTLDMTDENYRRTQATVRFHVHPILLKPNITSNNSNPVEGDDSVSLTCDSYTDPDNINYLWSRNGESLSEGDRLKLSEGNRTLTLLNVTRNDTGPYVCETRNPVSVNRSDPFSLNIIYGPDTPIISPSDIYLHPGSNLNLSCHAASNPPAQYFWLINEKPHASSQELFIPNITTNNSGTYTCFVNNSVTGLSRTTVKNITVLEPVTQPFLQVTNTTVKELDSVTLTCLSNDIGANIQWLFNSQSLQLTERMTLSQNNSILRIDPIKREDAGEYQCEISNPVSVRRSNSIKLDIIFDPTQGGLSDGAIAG

[2] = biological target: T2, mouse CEACAM1 on transfected CHO cells (mouse) (UniProt P31809); experiment: flow cytometry on cells; soluble mCEACAM1 binding to mCEACAM1 transfected cells in the presence of CC1 antibody (data not shown); only the binder purified
T2 sequence: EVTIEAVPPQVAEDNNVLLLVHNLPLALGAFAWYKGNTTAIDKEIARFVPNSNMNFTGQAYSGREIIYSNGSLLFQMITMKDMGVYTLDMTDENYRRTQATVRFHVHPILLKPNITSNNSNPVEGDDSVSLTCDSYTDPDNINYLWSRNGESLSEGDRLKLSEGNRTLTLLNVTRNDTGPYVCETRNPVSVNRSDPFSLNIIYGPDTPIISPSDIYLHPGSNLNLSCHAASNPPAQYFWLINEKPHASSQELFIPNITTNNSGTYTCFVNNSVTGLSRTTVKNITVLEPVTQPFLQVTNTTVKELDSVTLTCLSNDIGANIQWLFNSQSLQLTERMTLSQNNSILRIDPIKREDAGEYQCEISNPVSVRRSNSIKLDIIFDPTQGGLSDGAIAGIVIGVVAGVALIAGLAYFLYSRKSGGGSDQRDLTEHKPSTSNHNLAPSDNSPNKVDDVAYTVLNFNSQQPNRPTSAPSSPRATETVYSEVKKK

[3] = biological target: T2, mouse CEACAM1 on transfected CHO cells (mouse); experiment: ELISA; cELISA with CC1 IgG or Fab of CC1: mCEACAM1-CHO cells, serially diluted antibody or isotype control, then mCEACAM1-hFc at 10 ug/ml; detected with HRP goat anti-human IgG; only the binder purified
[4] = biological target: T1, mCEACAM1-His (mouse); experiment: ELISA; protein ELISA with CC1 IgG: coated mCEACAM-His, serially diluted CC1 (from 20 ug/ml) or isotype control 30 min, then mCEACAM-hFc at 1 ug/ml 30 min; detected with HRP goat anti-human IgG; both purified
[5] = biological target: T1, mCEACAM1-His (mouse); experiment: ELISA; protein ELISA: plates coated with mCEACAM-His 1 ug/ml in PBS at 4 C overnight, blocked; serially diluted mCEACAM1-hFc added 30 min at room temperature; detected with HRP goat anti-human IgG; both purified
[6] = biological target: T2, mouse CEACAM1 on transfected CHO cells (mouse); experiment: ELISA; cell ELISA (cELISA): mCEACAM1 or mTIM-3 transfected CHO cells seeded on plates; serially diluted mCEACAM-hFc in DMEM with 10% FBS, 30 min at room temperature; detected with HRP goat anti-human IgG; only the binder purified

Measured: binding

B1: mCEACAM1-hFc (Fc fusion, UniProt P31809 35-428)
chain: T1 sequence
binds: all assays above
